Source: PubChem BioAssay AID504444 (National Center for Advancing Translational Sciences (NCATS), 2011)
Among all 360,000 compounds or so, about 7,500 (2.1%) were called active. The shares of active, inactive and inconclusive entries below differ from those in the screen. The call rests on the fitted dose curve; in most records, active means well fitted inhibition curve with a large enough effect; inconclusive means small, poorly fitted or top-dose-only effect, or effect the other way; inactive means flat fitted curve, though single readings scatter. A potency beside an inconclusive call is a rough fit, not a confirmed value.

test: Nrf2 qHTS screen for inhibitors; settings: A549 ARE-Fluc reporter, luciferase luminescence, 18-24 h; activity change, negative = inhibition: at 46 µM (top of the series); further: nearly all actives have a fitted effect of over 60% in size
Method in brief: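 Two sequential reads on A549 ARE_Fluc cells exposed to compound for 18-24 h: a CellTiter-Fluor fluorescence read for viability, then a luciferase luminescence read for Nrf2/ARE activity.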
On the % scale 0 is the no-effect control and ±100 the full control effect; potency means the concentration at half of the fitted maximal effect.

| SMILES | Potency | activity change, negative = inhibition |
| --- | --- | --- |
| CCCOc1cccc(-c2cc(C(=O)N/N=C/c3ccccn3)c3ccccc3n2)c1 | inconclusive: 29.1 µM [falling, single point] |  |
| Cc1ccc(NC(=O)Cn2c(=O)n(-c3ccc(Cl)c(Cl)c3)c(=O)c3c(C)c(C)sc32)c(C)c1 |  | inactive: 11.1% |
| Cc1oc2ncn(CC(C)C)c(=O)c2c1C(=O)N1CCN(c2ccc(F)cc2)CC1 |  | inactive: -11.7% |
| Cc1cc(S(=O)(=O)Nc2ccc3c(c2)COC3=O)ccc1F | inconclusive: 32.6 µM [falling, partial curve, poor fit] |  |
| COC(=O)c1c(-c2ccc(S(C)(=O)=O)cc2)sc2cc(OC)ccc12 | inconclusive: 16.4 µM [activator, single point] |  |
| COc1ccccc1CNc1ccc(-c2nc(C)no2)cc1[N+](=O)[O-] |  | inactive: -68.9% |
| COc1cccc(NC(=O)/C(C#N)=C\c2cn(Cc3ccc(C)cc3)c3ccccc23)c1 | inconclusive: 14.6 µM [falling, partial curve] |  |
| COc1ccc(-n2c(SCC(=O)N/N=C(\C)c3cccnc3)nc3ccccc3c2=O)cc1 |  | inactive: -4.94% |
| O=C(c1ccc(C(F)(F)F)cc1)N1CCC(c2nc(-c3ccc(S(=O)(=O)N4CCCC4)cc3)no2)CC1 | active: 7.31 µM |  |
| Cc1cccc(N2CCN(C(=O)c3ccc4c(c3)CCN4S(C)(=O)=O)CC2)c1C | inconclusive: 20.6 µM [falling, partial curve, poor fit] |  |
| S=C(Nc1ccc(Cl)cc1)NC1CCCCC1 |  | inactive: -0.922% |
| N#Cc1c(N2CCOCC2)nsc1-c1ccc(C(F)(F)F)cc1 |  | inactive: 4.92% |
| Cc1cc(C)cc(NC(=O)C(=O)NCCCN2CCCC2=O)c1 | inconclusive: 10.3 µM [activator, partial curve, poor fit] |  |
| COc1cc(N/C(=N/S(=O)(=O)c2ccccc2)c2ccccc2)ncn1 | inconclusive: 14.6 µM [activator, single point] |  |
| CN(C)C(CNC(=O)c1coc2ccccc2c1=O)c1ccccc1 (configuration not stated) | inconclusive: 29.1 µM [falling, single point] |  |
| COc1ccc(S(=O)(=O)N(C)C)cc1NC(=O)CCNC(=O)c1ccco1 |  | inactive: 6.27% |
| O=S(=O)(c1ccccc1)N(Cc1ccccc1)c1ccccn1 |  | inactive: 1.37% |
| COC(=O)c1ccc(Cl)cc1NC(=O)N1CCCn2nc(C)cc21 | inconclusive: 23.1 µM [activator, partial curve, poor fit] |  |
| Cc1cccc(OCc2n[nH]c(=S)n2-c2ccccc2)c1 | inconclusive: 4.61 µM [falling, partial curve, poor fit] |  |
| COc1cc(OC)c(NC(=O)CCCn2nc(C)c3sc4ccccc4c3c2=O)cc1Cl | inconclusive: 1.46 µM [falling, full curve] |  |
| COC(=O)c1ccc(Nc2nnc(-c3ccc(C)c(S(=O)(=O)NCC4CCCO4)c3)c3ccccc23)cc1 (configuration not stated) | inconclusive: 23.1 µM [falling, partial curve, poor fit] |  |
| CCOC(=O)c1cc([N+](=O)[O-])sc1NC(=O)c1ccc(S(=O)(=O)N2CC3(C)CC2CC(C)(C)C3)cc1 (configuration not stated) | inconclusive: 6.51 µM [falling, partial curve] |  |
| O=C(NNC(=S)NC(=O)c1ccc(F)cc1)c1ccncc1 |  | inactive: -8.02% |

Whole records from above:
`Cc1cc(C)cc(NC(=O)C(=O)NCCCN2CCCC2=O)c1` reads Potency: inconclusive: 10.3 µM [activator, partial curve, poor fit]
`N#Cc1c(N2CCOCC2)nsc1-c1ccc(C(F)(F)F)cc1` reads activity change, negative = inhibition: inactive: 4.92%

Remaining list, next part.

| SMILES | Potency | activity change, negative = inhibition |
| --- | --- | --- |
| Cc1ccc(/C(N)=N/OC(=O)CCC2CCCCC2)cc1 | inconclusive: 5.17 µM [activator, partial curve] |  |
| CCn1c(C)cc(C(=O)CSc2nnnn2C2CCCC2)c1C | inconclusive: 1.3 µM [activator, full curve, poor fit] |  |
| O=c1c2cccnc2n(Cc2ccccc2F)c(=O)n1Cc1ccccc1Cl |  | inactive: -21.5% |
| Cc1ccc(NC(=O)C2=C(O)c3ccccc3N(C)S2(=O)=O)cc1 | inconclusive: 9.2 µM [falling, partial curve, poor fit] |  |
| Cc1cc(NC(=O)CSc2ncnc3ccccc23)no1 | inconclusive: 16.4 µM [falling, partial curve, poor fit] |  |
| COc1cc(/C=N/NC(=O)CNC(=O)/C=C/c2ccco2)cc(OC)c1OC | inconclusive: 23.1 µM [activator, single point] |  |
| Cc1cc(C)c(NC(=O)CN(C)CC(=O)Nc2cccc(S(=O)(=O)N(C)c3ccccc3)c2)c(C)c1 | inconclusive: 25.9 µM [falling, single point] |  |
| COc1ccccc1NC(=O)c1ccc2c(Cl)c3c(nc2c1)CCCC3 | inconclusive: 29.1 µM [activator, single point] |  |
| CCCCCOP(=O)(OCCCCC)C1(NS(=O)(=O)c2ccccc2)C=CC(=O)c2ccccc21 (configuration not stated) | inconclusive: 29.1 µM [falling, single point] |  |
| CC(=O)CC(=O)NC(=NC1CCCCC1)Nc1nc(C)cc(C)n1 | inconclusive: 32.6 µM [falling, single point] |  |
| COc1ccc(/C=N/NC(=O)c2cc(-c3ccc4c(c3)OCO4)n[nH]2)cc1OC |  | inactive: -7.55% |
| O=C(NCc1ccncc1)Nc1cc(Cl)ccc1Cl |  | inactive: -28.6% |
| CC(C)=CCCC(C)CN1CCC(N2CCC(C(=O)N3CCCC3)CC2)CC1 (configuration not stated) | inconclusive: 29.1 µM [falling, single point] |  |
| CCOc1ccc(NC(=O)N2CC=C(c3c[nH]c4ccccc34)CC2)cc1 | inconclusive: 7.31 µM [falling, partial curve] |  |
| COc1cccc(OCC(Cn2c(C)nc3ccccc32)OC(C)=O)c1 (configuration not stated) | inconclusive: 29.1 µM [falling, single point] |  |
| CCCCOc1ccc(C(CC(=O)NC)C(=O)O)cc1 (configuration not stated) | inconclusive: 3.66 µM [falling, partial curve, poor fit] |  |
| COc1ccccc1Nc1nc(-c2sc(NC(=O)c3ccco3)nc2C)cs1 | inconclusive: 23.1 µM [activator, single point] |  |
| Cc1ccc2nc(SC(C)C(=O)N3CCOCC3)[nH]c2c1 (configuration not stated) | inconclusive: 5.8 µM [activator, partial curve] |  |
| COc1cccc(OCCCn2cc(/C=C3/C(=N)N4C=C(C)SC4=NC3=O)c3ccccc32)c1 | inconclusive: 29.1 µM [falling, single point] |  |
| COc1ccc(NC(=O)c2ccc3ccccc3c2)cc1 | inconclusive: 0.326 µM [activator, full curve, poor fit] |  |
| Cc1ccc(C)c(NC(=O)Cn2cc(C(=O)C3CCCCC3)c3ccccc32)c1 |  | inactive: -16.1% |
| CC(=O)C(Sc1ccc2nnc(-c3ccc(C)cc3)n2n1)C(C)=O | inconclusive: 29.1 µM [falling, single point] |  |
| CCCOc1cccc(C(=O)N/N=C/c2ccoc2)c1 |  | inactive: 6.08% |

| SMILES | Potency | activity change, negative = inhibition |
| --- | --- | --- |
| O=C(O)c1ccccc1NC(c1ccccc1)c1ccc2cccnc2c1O (configuration not stated) | inconclusive: 29.1 µM [falling, single point] |  |
| CC(C)OCCCNC(=O)c1ccc(Br)cc1 | inconclusive: 16.4 µM [activator, single point] |  |
| CCCC(c1nnnn1C1CCCCC1)N1CCN(c2ncccn2)CC1 (configuration not stated) | inconclusive: 0.731 µM [activator, partial curve, poor fit] |  |
| Cc1ccccc1NC(=O)c1cccc(OCc2c(C)noc2C)c1 | inconclusive: 4.11 µM [falling, full curve, poor fit] |  |
| OC(COCc1ccccc1F)CN1CCCCC1 (configuration not stated) | inconclusive: 10.3 µM [activator, partial curve] |  |
| COc1cc(/C=C(\C#N)c2nc3ccc(C)cc3[nH]2)c([N+](=O)[O-])cc1OC | inconclusive: 18.4 µM [falling, single point] |  |
| O=C(Nc1ccc(NC(=O)c2ccc(Cl)cc2Cl)cc1)c1cccs1 |  | inactive: -18.5% |
| CCOc1ccc(Cl)cc1S(=O)(=O)NCc1ccccn1 | inconclusive: 29.1 µM [activator, single point] |  |
| CC1(c2nnc(-c3ccc(F)cc3)o2)CC(c2ccc([N+](=O)[O-])cc2)=NO1 (configuration not stated) | inconclusive: 29.1 µM [falling, single point] |  |
| Cc1nc(N2CCCC2)c2c(C(=O)Nc3cccc(Cl)c3C)c(C)oc2n1 |  | inactive: 20.7% |
| Cc1ccc(NC(=O)CCN2C(=O)c3cccc4cccc(c34)C2=O)cc1 | inconclusive: 6.51 µM [activator, single point] |  |
| C/C(=N\O)c1ccc(N2C(=O)C3CC=C(Cl)CC3C2=O)cc1 (configuration not stated) | inconclusive: 0.0326 µM [falling, full curve, poor fit] |  |
| O=[N+]([O-])c1cc(/C=N/N2CCN(Cc3ccccc3)CC2)ccc1Cl | inconclusive: 14.6 µM [activator, partial curve, poor fit] |  |
| COc1ccc(SCC(CC(C)C)N2CCN(C)CCC2=O)cc1 (configuration not stated) | inconclusive: 9.2 µM [activator, partial curve, poor fit] |  |
| CCCNC(=O)C1CCC(Cn2c(=O)c3sccc3n(Cc3ccccc3C)c2=O)CC1 (configuration not stated) | inconclusive: 29.1 µM [activator, single point] |  |
| Cc1ccc(CC(=O)Nc2nc3ccccc3s2)cc1 |  | inactive: 20.5% |
| Cc1ccc(S(=O)(=O)Nc2ccc3c(c2)n(C)c(=O)n3C)cc1 | inconclusive: 23.1 µM [falling, single point] |  |
| COc1cc(Cl)c(C)cc1NC(=O)c1cc2ccc3cccnc3c2[nH]1 | inconclusive: 29.1 µM [falling, single point] |  |
| COc1ccc(S(=O)(=O)n2nc(-n3c(C)ccc3C)c3c(F)cccc32)cc1OC | inconclusive: 23.1 µM [falling, single point] |  |
| COc1ccc(Nc2c(-c3ccco3)nc3ccc(C)cn23)cc1 |  | inactive: 7.57% |
| CN(C)c1ccccc1-c1csc(N2CCC(C(N)=O)CC2)n1 | inconclusive: 0.82 µM [activator, full curve] |  |

Grouped by structure: the entries above containing a Cl atom (13)

| SMILES | Potency | activity change, negative = inhibition |
| --- | --- | --- |
| Cc1ccc(NC(=O)Cn2c(=O)n(-c3ccc(Cl)c(Cl)c3)c(=O)c3c(C)c(C)sc32)c(C)c1 |  | inactive: 11.1% |
| S=C(Nc1ccc(Cl)cc1)NC1CCCCC1 |  | inactive: -0.922% |
| COC(=O)c1ccc(Cl)cc1NC(=O)N1CCCn2nc(C)cc21 | inconclusive: 23.1 µM [activator, partial curve, poor fit] |  |
| COc1cc(OC)c(NC(=O)CCCn2nc(C)c3sc4ccccc4c3c2=O)cc1Cl | inconclusive: 1.46 µM [falling, full curve] |  |
| O=c1c2cccnc2n(Cc2ccccc2F)c(=O)n1Cc1ccccc1Cl |  | inactive: -21.5% |
| COc1ccccc1NC(=O)c1ccc2c(Cl)c3c(nc2c1)CCCC3 | inconclusive: 29.1 µM [activator, single point] |  |
| O=C(NCc1ccncc1)Nc1cc(Cl)ccc1Cl |  | inactive: -28.6% |
| O=C(Nc1ccc(NC(=O)c2ccc(Cl)cc2Cl)cc1)c1cccs1 |  | inactive: -18.5% |
| CCOc1ccc(Cl)cc1S(=O)(=O)NCc1ccccn1 | inconclusive: 29.1 µM [activator, single point] |  |
| Cc1nc(N2CCCC2)c2c(C(=O)Nc3cccc(Cl)c3C)c(C)oc2n1 |  | inactive: 20.7% |
| C/C(=N\O)c1ccc(N2C(=O)C3CC=C(Cl)CC3C2=O)cc1 (configuration not stated) | inconclusive: 0.0326 µM [falling, full curve, poor fit] |  |
| O=[N+]([O-])c1cc(/C=N/N2CCN(Cc3ccccc3)CC2)ccc1Cl | inconclusive: 14.6 µM [activator, partial curve, poor fit] |  |
| COc1cc(Cl)c(C)cc1NC(=O)c1cc2ccc3cccnc3c2[nH]1 | inconclusive: 29.1 µM [falling, single point] |  |
